Test results: the supplement of paper PMC6411743
± gives the standard deviation of the averaged measurements. The list shows a part of the results.

The chains behind the UniProt entries cited, without tags or fusion partners. Where a name states a change or a piece, a line headed by the entry shows the natural chain unless it says otherwise.
UniProt Q9HAB8: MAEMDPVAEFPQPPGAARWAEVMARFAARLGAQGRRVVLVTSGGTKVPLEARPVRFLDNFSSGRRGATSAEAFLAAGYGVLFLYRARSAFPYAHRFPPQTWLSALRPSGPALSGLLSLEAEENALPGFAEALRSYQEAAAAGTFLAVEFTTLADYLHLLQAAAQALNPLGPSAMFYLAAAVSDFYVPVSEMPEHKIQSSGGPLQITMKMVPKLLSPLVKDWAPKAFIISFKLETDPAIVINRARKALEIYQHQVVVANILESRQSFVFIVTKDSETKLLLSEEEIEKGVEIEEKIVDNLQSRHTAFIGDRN
UniProt Q9NU22: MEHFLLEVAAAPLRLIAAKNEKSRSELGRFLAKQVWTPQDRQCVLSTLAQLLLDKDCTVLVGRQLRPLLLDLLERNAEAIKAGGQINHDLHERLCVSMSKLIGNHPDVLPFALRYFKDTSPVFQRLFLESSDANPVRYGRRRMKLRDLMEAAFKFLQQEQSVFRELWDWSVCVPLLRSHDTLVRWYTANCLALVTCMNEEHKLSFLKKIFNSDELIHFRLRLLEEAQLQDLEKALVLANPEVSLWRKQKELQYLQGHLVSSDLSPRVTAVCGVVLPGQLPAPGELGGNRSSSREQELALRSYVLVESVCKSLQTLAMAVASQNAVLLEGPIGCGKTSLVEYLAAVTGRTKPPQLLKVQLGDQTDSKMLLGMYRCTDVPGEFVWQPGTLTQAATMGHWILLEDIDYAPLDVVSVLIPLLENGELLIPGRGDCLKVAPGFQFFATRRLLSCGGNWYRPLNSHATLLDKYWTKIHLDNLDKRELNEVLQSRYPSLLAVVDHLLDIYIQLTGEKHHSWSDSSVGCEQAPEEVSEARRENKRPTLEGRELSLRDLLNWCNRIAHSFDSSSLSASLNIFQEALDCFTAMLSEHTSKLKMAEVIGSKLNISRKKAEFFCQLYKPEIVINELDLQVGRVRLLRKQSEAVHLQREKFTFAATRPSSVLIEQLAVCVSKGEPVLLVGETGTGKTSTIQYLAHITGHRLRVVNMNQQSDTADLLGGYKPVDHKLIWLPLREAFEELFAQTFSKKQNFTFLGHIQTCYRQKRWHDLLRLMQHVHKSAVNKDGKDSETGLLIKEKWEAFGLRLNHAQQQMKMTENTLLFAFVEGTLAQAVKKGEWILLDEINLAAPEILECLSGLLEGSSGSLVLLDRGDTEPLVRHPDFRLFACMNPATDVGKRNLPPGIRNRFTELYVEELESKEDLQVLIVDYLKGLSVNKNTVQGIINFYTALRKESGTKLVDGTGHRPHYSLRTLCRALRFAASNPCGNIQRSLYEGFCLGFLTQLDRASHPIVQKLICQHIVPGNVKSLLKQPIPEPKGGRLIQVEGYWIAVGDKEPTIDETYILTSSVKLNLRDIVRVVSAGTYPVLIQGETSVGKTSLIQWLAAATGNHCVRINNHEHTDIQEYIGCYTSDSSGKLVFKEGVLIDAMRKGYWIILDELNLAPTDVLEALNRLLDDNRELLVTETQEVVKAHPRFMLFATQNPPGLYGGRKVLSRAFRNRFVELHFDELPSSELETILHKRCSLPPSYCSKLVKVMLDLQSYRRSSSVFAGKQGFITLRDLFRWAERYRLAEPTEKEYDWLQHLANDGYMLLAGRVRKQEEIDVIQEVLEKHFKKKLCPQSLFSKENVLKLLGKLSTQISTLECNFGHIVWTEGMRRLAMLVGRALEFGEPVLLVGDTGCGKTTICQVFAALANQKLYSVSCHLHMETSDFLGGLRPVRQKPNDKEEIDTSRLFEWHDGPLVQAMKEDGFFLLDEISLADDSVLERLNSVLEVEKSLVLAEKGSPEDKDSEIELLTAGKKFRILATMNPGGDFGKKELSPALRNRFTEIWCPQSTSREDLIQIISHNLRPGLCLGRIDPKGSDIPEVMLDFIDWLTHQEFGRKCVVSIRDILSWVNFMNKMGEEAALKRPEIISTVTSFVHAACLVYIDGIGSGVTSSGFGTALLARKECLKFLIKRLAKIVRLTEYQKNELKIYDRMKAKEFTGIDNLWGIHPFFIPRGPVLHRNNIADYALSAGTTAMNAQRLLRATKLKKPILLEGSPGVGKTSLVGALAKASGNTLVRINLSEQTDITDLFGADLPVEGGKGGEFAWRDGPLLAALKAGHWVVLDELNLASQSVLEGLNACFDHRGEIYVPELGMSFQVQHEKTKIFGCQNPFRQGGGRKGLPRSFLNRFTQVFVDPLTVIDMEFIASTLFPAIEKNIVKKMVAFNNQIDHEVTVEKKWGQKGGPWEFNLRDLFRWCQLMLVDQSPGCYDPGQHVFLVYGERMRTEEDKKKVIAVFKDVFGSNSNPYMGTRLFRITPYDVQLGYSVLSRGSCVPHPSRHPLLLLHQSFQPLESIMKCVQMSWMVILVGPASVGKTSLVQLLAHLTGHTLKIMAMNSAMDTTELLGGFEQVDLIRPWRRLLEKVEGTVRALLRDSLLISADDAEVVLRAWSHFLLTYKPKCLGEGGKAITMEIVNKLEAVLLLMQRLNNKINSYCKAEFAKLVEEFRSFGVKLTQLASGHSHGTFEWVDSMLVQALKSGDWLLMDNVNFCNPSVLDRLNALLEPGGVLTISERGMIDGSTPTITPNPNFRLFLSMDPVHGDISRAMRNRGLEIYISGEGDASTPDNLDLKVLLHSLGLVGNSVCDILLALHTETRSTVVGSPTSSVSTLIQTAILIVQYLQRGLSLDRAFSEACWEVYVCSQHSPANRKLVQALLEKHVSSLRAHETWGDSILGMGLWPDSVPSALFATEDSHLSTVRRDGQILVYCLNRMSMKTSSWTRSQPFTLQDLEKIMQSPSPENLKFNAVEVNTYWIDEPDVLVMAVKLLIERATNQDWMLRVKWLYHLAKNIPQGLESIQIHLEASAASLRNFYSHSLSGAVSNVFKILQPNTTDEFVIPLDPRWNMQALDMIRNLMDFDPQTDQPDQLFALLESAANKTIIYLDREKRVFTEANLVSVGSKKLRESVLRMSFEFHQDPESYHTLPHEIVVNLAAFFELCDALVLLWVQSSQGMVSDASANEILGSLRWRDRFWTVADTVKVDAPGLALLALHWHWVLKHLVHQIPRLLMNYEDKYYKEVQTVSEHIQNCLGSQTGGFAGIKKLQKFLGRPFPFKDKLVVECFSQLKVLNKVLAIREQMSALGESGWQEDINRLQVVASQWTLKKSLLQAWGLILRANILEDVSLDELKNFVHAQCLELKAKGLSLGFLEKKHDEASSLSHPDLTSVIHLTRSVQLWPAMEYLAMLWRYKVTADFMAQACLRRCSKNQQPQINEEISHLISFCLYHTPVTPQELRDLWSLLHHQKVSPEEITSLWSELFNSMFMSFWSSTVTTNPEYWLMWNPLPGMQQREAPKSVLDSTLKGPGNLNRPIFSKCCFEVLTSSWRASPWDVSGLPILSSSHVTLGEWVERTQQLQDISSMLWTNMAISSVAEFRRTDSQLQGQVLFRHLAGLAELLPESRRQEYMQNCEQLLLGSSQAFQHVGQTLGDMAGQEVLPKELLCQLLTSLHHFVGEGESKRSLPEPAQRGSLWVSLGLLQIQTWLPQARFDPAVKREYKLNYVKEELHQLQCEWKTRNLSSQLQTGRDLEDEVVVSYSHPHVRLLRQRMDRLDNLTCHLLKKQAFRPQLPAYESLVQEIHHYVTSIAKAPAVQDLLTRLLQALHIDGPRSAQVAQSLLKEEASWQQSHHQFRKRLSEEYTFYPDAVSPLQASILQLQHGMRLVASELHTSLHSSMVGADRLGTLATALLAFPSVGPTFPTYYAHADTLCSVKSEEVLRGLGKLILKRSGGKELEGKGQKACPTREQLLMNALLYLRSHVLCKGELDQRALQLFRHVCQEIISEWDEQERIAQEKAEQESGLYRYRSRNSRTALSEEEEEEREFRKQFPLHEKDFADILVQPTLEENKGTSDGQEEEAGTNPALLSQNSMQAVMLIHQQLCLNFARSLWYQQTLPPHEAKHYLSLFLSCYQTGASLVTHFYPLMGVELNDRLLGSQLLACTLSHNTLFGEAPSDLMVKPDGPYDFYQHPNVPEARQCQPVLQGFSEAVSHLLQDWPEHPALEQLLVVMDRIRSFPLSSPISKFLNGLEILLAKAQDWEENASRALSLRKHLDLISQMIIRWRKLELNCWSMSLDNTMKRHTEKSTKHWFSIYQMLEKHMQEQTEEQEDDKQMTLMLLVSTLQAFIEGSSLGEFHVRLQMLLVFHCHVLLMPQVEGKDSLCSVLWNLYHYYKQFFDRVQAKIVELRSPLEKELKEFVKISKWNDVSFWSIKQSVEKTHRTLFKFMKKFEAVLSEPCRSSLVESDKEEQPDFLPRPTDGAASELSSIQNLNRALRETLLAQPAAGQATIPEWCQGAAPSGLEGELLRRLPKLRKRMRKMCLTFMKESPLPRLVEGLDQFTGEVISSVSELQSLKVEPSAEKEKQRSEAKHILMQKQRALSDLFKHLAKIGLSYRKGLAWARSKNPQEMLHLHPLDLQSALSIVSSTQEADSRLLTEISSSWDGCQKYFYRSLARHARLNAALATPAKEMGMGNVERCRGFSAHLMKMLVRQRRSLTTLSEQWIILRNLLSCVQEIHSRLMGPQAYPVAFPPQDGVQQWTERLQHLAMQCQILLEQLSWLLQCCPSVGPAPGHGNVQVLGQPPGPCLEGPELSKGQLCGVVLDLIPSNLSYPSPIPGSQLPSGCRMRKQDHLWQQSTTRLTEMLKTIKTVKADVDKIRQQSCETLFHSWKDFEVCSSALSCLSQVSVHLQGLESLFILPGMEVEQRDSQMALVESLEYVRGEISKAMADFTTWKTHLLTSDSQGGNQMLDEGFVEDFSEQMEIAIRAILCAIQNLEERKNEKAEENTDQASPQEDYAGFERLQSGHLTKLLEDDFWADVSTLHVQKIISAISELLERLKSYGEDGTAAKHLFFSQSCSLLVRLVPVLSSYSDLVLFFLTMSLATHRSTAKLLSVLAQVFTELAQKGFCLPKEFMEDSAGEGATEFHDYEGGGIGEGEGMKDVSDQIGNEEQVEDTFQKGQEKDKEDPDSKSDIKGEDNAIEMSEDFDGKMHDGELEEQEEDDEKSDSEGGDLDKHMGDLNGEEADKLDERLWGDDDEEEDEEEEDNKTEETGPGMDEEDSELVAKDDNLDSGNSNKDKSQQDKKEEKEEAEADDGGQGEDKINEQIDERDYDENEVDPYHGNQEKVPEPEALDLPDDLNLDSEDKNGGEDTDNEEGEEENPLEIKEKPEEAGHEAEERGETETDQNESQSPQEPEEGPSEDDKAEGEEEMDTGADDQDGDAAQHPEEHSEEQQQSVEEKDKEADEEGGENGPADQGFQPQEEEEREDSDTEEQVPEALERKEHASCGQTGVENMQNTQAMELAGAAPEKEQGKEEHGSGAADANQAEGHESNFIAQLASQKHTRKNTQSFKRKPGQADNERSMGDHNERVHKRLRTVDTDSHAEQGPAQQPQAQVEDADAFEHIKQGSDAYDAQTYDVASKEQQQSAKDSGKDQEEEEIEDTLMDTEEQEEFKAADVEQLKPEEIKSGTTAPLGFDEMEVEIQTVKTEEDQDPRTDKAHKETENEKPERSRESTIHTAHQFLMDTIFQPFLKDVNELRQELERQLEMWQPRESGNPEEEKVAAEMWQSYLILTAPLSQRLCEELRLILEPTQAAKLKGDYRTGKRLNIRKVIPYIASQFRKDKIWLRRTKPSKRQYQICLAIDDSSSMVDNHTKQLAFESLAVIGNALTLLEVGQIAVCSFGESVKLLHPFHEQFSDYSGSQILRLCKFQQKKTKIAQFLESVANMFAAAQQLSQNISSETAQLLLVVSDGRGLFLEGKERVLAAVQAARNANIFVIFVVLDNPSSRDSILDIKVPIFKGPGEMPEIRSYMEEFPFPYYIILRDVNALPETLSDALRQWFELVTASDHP
UniProt Q9NRX4: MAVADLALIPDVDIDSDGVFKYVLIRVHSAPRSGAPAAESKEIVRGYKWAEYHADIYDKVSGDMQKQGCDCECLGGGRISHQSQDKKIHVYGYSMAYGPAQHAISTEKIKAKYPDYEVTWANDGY
UniProt Q9NRP2: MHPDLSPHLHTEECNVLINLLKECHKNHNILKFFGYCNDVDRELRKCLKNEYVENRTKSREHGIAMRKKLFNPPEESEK

Compound: Nc1nc2c(ncn2[C@@H]2O[C@H](COP(=O)(O)OP(=O)(O)OP(=O)(O)O)[C@@H](O)[C@H]2O)c(=O)[nH]1 [guanosine triphosphate]
Test: NP40-soluble protein abundance relative to vehicle (solubility fold change) (ratio); higher = more soluble protein in presence of GTP
Method: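 Solubility proteome profiling in Jurkat crude lysate. Lysate was treated with Mg-GTP (0.1-10 mM) for 10 min at room temperature and 3 min at 37 °C, then solubilised with 0.8% NP40 and benzonase, followed by ultracentrifugation. Proteins were quantified by TMT10 LC-MS/MS; the value is the NP40-soluble abundance relative to the NP40-processed vehicle, from 3 independent experiments.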

**Q.** How did the NP40-soluble protein abundance (concentration: 0.1mM) turn out when PPCS (UniProt Q9HAB8) was run?
**A.** 1.01 ± 0.022

**Q.** And the NP40-soluble protein abundance (concentration: 0.5mM)?
**A.** 0.983 ± 0.032

**Q.** And the NP40-soluble protein abundance (concentration: 1mM)?
**A.** 0.929 ± 0.036

**Q.** And the NP40-soluble protein abundance (concentration: 2mM)?
**A.** 0.895 ± 0.03

**Q.** What about the NP40-soluble protein abundance (concentration: 4mM) of the same target?
**A.** 0.901 ± 0.076

**Q.** And the NP40-soluble protein abundance (concentration: 6mM)?
**A.** 0.905 ± 0.073

**Q.** What about the NP40-soluble protein abundance (concentration: 8mM) of the same target?
**A.** 0.857 ± 0.07

**Q.** And the NP40-soluble protein abundance (concentration: 10mM)?
**A.** 0.847 ± 0.087

**Q.** How did the NP40-soluble protein abundance (concentration: 0.1mM) turn out when MDN1 (UniProt Q9NU22) was run?
**A.** 1.09 ± 0.096

**Q.** What about the NP40-soluble protein abundance (concentration: 0.5mM) of the same target?
**A.** 1.06 ± 0.12

**Q.** What about the NP40-soluble protein abundance (concentration: 1mM) of the same target?
**A.** 0.971 ± 0.081

**Q.** What about the NP40-soluble protein abundance (concentration: 2mM) of the same target?
**A.** 0.995 ± 0.097

**Q.** What about the NP40-soluble protein abundance (concentration: 4mM) of the same target?
**A.** 1.08 ± 0.13

**Q.** What about the NP40-soluble protein abundance (concentration: 6mM) of the same target?
**A.** 1.08 ± 0.12

**Q.** And the NP40-soluble protein abundance (concentration: 8mM)?
**A.** 1.09 ± 0.084

**Q.** And the NP40-soluble protein abundance (concentration: 10mM)?
**A.** 1.09 ± 0.083

**Q.** With TOLLIP (UniProt Q9H0E2) as the target, how does the NP40-soluble protein abundance (concentration: 0.1mM) read?
**A.** 0.947 ± 0.048

**Q.** And the NP40-soluble protein abundance (concentration: 0.5mM)?
**A.** 0.875 ± 0.059

**Q.** And the NP40-soluble protein abundance (concentration: 1mM)?
**A.** 0.938 ± 0.061

**Q.** What about the NP40-soluble protein abundance (concentration: 2mM) of the same target?
**A.** 0.911 ± 0.055

**Q.** And the NP40-soluble protein abundance (concentration: 4mM)?
**A.** 0.901 ± 0.062

**Q.** And the NP40-soluble protein abundance (concentration: 6mM)?
**A.** 0.898 ± 0.064

**Q.** And the NP40-soluble protein abundance (concentration: 8mM)?
**A.** 0.887 ± 0.085

**Q.** What about the NP40-soluble protein abundance (concentration: 10mM) of the same target?
**A.** 0.886 ± 0.073

**Q.** Which results are given for UniProt Q9NRX4 and related entries?
**A.** NP40-soluble protein abundance (concentration: 0.1mM): 0.974 ± 0.042; NP40-soluble protein abundance (concentration: 0.5mM): 0.923 ± 0.078; NP40-soluble protein abundance (concentration: 1mM): 0.943 ± 0.084; NP40-soluble protein abundance (concentration: 2mM): 0.913 ± 0.1; NP40-soluble protein abundance (concentration: 4mM): 0.881 ± 0.09; NP40-soluble protein abundance (concentration: 6mM): 0.899 ± 0.085; NP40-soluble protein abundance (concentration: 8mM): 0.881 ± 0.12; NP40-soluble protein abundance (concentration: 10mM): 0.867 ± 0.082

**Q.** With UniProt Q9NRP2 as the target, how does the NP40-soluble protein abundance (concentration: 0.1mM) read?
**A.** 1.05 ± 0.072

**Q.** And the NP40-soluble protein abundance (concentration: 0.5mM)?
**A.** 1.05 ± 0.059

**Q.** And the NP40-soluble protein abundance (concentration: 1mM)?
**A.** 1.02 ± 0.067

**Q.** And the NP40-soluble protein abundance (concentration: 2mM)?
**A.** 0.966 ± 0.084

**Q.** And the NP40-soluble protein abundance (concentration: 4mM)?
**A.** 0.917 ± 0.11

**Q.** And the NP40-soluble protein abundance (concentration: 6mM)?
**A.** 0.918 ± 0.11

**Q.** What about the NP40-soluble protein abundance (concentration: 8mM) of the same target?
**A.** 0.916 ± 0.069

**Q.** What about the NP40-soluble protein abundance (concentration: 10mM) of the same target?
**A.** 0.904 ± 0.044
